Measured values: the supplement of paper PMC5949888
Most values lie at the floor of the assay. Slopes are relative: functional sequences can read slightly below zero.

What follows are substances tested on Saccharomyces cerevisiae PS128 hsf1 delta, HSF1(1-493) fusion (assay: growth estimate (transactivation domain function in HSF1 fusion, heat-shock survival) (a.u. (slope of normalised read count over time)); higher = stronger growth at 37°C, i.e. more transactivation activity). Settings: library: random library.

| Substance | growth estimate |
| --- | --- |
| FILGFQGRAWNYAFSVVKGS | < -0.25 |
| STCSEMIRAYPQVGGVSS | < -0.25 |
| PGALYG | < -0.25 |
| TCFTYCGTMTM | -0.246 |
| CSSERLGVQRGYIYPLLVVL | < -0.25 |
| IGAFTPAVRDVLTRTTPGSW | < -0.25 |
| KDLTVMAVSGW | < -0.25 |
| FGECGSCVRPPTIGITAMVR | < -0.25 |
| TDLPS | < -0.25 |
| CQSALVRRQSRAMGYNIALP | < -0.25 |
| NKGPLIHQISYEHSRLSMAR | < -0.25 |
| PPFTFVYNDNTPPGGREQAI | < -0.25 |
| ALSSTQPEAHDFDPTRLIRH | < -0.25 |
| SICQHQLAFH | < -0.25 |
| TYCWV | < -0.25 |
| ISALNEPLKSV | < -0.25 |
| CAD | < -0.25 |
| LTSERVRL | < -0.25 |
| RDGPTGHVWRRPLDGVEWAY | -0.217 |
| RVCRSTDNPSPYSPHWNQQS | < -0.25 |
| GSCFTQLFAKSWCIPSPVRM | < -0.25 |
| KIDYY | -0.241 |
| ISGN | < -0.25 |
| NLGQGDVQVGVGIAARLNAP | < -0.25 |
| PENSGQGVKVIQTASEYPPS | < -0.25 |

| Substance | growth estimate |
| --- | --- |
| VGRPGAGSCTSIERG | < -0.25 |
| CPDNFTQFGTGTTWDL | < -0.25 |
| TLLNQEQWFRPLGLRRPFGA | < -0.25 |
| VTTTDCGGAPIGSVDAVCSR | < -0.25 |
| GLSRKSYMSIALREGLRIVL | < -0.25 |
| VSADPDAPSDVRFKAEVNDD | < -0.25 |
| KNSLGCRRHQARGGIIEHRD | < -0.25 |
| KYLESSQGLSYTVEVRA | < -0.25 |
| GLPCTRPKGVACGARQFKYI | < -0.25 |
| LGDPWGWEPCSYVGFAAPTL | 1.28 |
| GII | < -0.25 |
| AVFSLKRQLLGSIPGRDQEV | -0.246 |
| LNANQYNMEEVMGPDAGAIP | < -0.25 |
| IYSDCAGASPVNQLYGTVSG | < -0.25 |
| SAMSYV | < -0.25 |
| YVV | < -0.25 |
| PRSGFERMNTLDKSPGRPET | < -0.25 |
| LFRGCWLWAGWTSLGANFR | < -0.25 |
| CLYSGLLPVGAV | < -0.25 |
| VYGVFVTGKCGLSVPQRLGW | < -0.25 |
| KVDRTLRGGDREHAYLVRVH | < -0.25 |
| KSSRTVWPPGSL | < -0.25 |
| TEWNHPAGRPRRSLVACLQE | < -0.25 |
| TVQGLGEWVVDCGG | < -0.25 |
| SWTHCFESLGGVGLHFAINE | -0.204 |

| Substance | growth estimate |
| --- | --- |
| SSQSVVR | < -0.25 |
| VRIGCHGADLSPSYARMSHT | < -0.25 |
| RVENHVSQQVLPRILSLSRG | 0.202 |
| QGAKAQTACPVSSYFS | < -0.25 |
| PLPPSRSCTRKILEMTRTRR | < -0.25 |
| TPNACDVNGQSHRPG | < -0.25 |
| HGGSCE | < -0.25 |
| CEACVRYL | < -0.25 |
| WWLKRSSADGCNGDPTFW | -0.238 |
| PSCRVMRGKSICVAAHRS | < -0.25 |
| AQRKHTETIPGPGADPCTST | < -0.25 |
| GPLRVTQVIPRSFVRGIHQP | < -0.25 |
| IAANSW | < -0.25 |
| SWPLESRALRVLVIPAGTCS | < -0.25 |
| QYPWRAREGVVRAARTISPR | < -0.25 |
| GQWGIKSRLKSRY | < -0.25 |
| GTDNSSRDHRRNGTRAGWID | < -0.25 |
| DSNSHTSLRGKVQLPAP | < -0.25 |
| PVSRTRCRKATPPVTLAVRC | < -0.25 |
| TWD | -0.245 |
| DARRIALRIFLKG | < -0.25 |
| PRSSLLRRTVCVAGSISSAV | < -0.25 |
| TFPASSQHTRC | < -0.25 |
| RVYVCTNGTFSRGLDAVNSA | < -0.25 |
| TSKWNKRAVRAATPTGDRLC | < -0.25 |

Reprinted at random: seven entries already listed.

| Substance | growth estimate |
| --- | --- |
| CEACVRYL | < -0.25 |
| SWPLESRALRVLVIPAGTCS | < -0.25 |
| QGAKAQTACPVSSYFS | < -0.25 |
| AQRKHTETIPGPGADPCTST | < -0.25 |
| GPLRVTQVIPRSFVRGIHQP | < -0.25 |
| QYPWRAREGVVRAARTISPR | < -0.25 |
| SSQSVVR | < -0.25 |

Rewritten as tab-separated lines: part of the list above.
Substance	growth estimate
TPNACDVNGQSHRPG	< -0.25
HGGSCE	< -0.25

(continued)

| Substance | growth estimate |
| --- | --- |
| EREKPSKV | < -0.25 |
| RMRILAAPPPQAAGVQY | < -0.25 |
| TGPPCSRIRTH | < -0.25 |
| FGSSKL | < -0.25 |
| FGAHNERN | < -0.25 |
| LGAVRWS | < -0.25 |
| RQIHPPRPKKT | < -0.25 |
| LIRSTSDQGQSDTSNLIIDS | < -0.25 |
| ASPVGRMIGEPLLREAQFVS | < -0.25 |
| IVRAWRLHRGSCDLNHET | < -0.25 |
| RSDGFP | < -0.25 |
| LLEDYKMCPFLHVYASIQRP | < -0.25 |
| SPLAFVGSQRA | < -0.25 |
| LVIEGLSVAPIEIRHCRPAA | < -0.25 |
| DRSAIRDERSRLYRLVDISG | < -0.25 |
| RPRCKLCSDGSFTKPSIVRH | < -0.25 |
| GIPHKVPMCLHSSPVPASRG | < -0.25 |
| SNGERFLYAVVVWPSLGLPV | < -0.25 |
| KAIRSLF | < -0.25 |
| FEVGSRVSKYGNLASGGKK | < -0.25 |
| ERAAR | < -0.25 |
| GGNENVR | < -0.25 |
| RSGGKKCKLVSNDSGKQGPI | < -0.25 |
| SYQNSRP | < -0.25 |
| KSWPSVLGFSRAGHAWA | < -0.25 |

| Substance | growth estimate |
| --- | --- |
| QDR | < -0.25 |
| VVHAG | < -0.25 |
| KEAWEPALITQVPGNQSSAG | < -0.25 |
| SMWARVMFGVRYR | < -0.25 |
| ACPQS | < -0.25 |
| NFG | < -0.25 |
| TIDIKS | < -0.25 |
| VIGPYGAPASALMGLGVRAQ | < -0.25 |
| SRWNHPVVRDNGKAEATIVT | < -0.25 |
| DGSHPCGVGTTFWDGPRR | < -0.25 |
| VRCLVTRKIGACR | < -0.25 |
| GCAVLFPTVWWPTVRGESVT | < -0.25 |
| YAVSGTRNDHCVAAQRPTWG | < -0.25 |
| RDIYP | < -0.25 |
| FGWQEKMCRHQHQTRGEVVP | < -0.25 |
| MLTNIPVIVLWARGGGAESI | < -0.25 |
| WLGEAMDLDS | < -0.25 |
| NFSCFGGEF | < -0.25 |
| HTWPG | < -0.25 |
| STIMGWMALDGPLCLLRAPR | < -0.25 |
| IMGLAPRA | < -0.25 |
| WGAVPDEA | < -0.25 |
| QQYTRFTRPGA | < -0.25 |
| GQRGILDEGTAYEGAGE | < -0.25 |
| VVLVNKLSPTEGQLHGYGKR | < -0.25 |

| Substance | growth estimate |
| --- | --- |
| HLFSTECGRAMTMCESTGSG | < -0.25 |
| GRHGGAILSRLRADLNTVPA | < -0.25 |
| ELMTIPSAHFGVSERAPIRV | < -0.25 |
| TPGREIIPITSPVLRGRTKH | < -0.25 |
| TQFP | < -0.25 |
| CIPCGAIRRPAASPSVHSKS | < -0.25 |
| VVSRHGKCVISVAK | < -0.25 |
| SISLLSYSLLPSPSLESGPA | < -0.25 |
| ADVATSQIGWVSLKPWIARA | < -0.25 |
| VQLVGPQRVRQSTCGASVFQ | < -0.25 |
| RDVVCHLRRGWVAVPIKRAF | < -0.25 |
| ADIAPSCCRGFIDL | < -0.25 |
| LGTPVSGKCTVPEIGRSARG | < -0.25 |
| NYRVLNALDQQFLIRRHISL | < -0.25 |
| TLIVKRSGVF | < -0.25 |
| GCDTLTRLFARCRSSLARDR | < -0.25 |
| NCQVGAFLLKGSIGSCSSVA | < -0.25 |
| FCRRHY | -0.246 |
| HSGIRESDPR | < -0.25 |
| TFRTSRVLYPENDS | < -0.25 |
| KMTYGVCLPTGVIGRCIILR | < -0.25 |
| YNWTIGTDEV | < -0.25 |
| PFKPGAP | < -0.25 |
| GRSIKCPA | < -0.25 |
| LGAAKAACEGCLGADWKSLF | -0.231 |

| Substance | growth estimate |
| --- | --- |
| WDKTLARIALSRLGRYKGVK | < -0.25 |
| MDTVWVGTPGLGCTR | < -0.25 |
| PCKRCGCQCHNGGIQSCYGD | < -0.25 |
| DFTLERLFVQVIRC | < -0.25 |
| YVSPPRPPRESL | < -0.25 |
| SLRNVLQSAGGARFPIDVVS | < -0.25 |
| RSRDWLCTVRWCTLT | < -0.25 |
| VSGYSQMAGASSP | < -0.25 |
| LSF | < -0.25 |
| RLASHGAP | < -0.25 |
| LDVLVRGC | < -0.25 |
| REPWFYITLYIYRYAT | < -0.25 |
| RFVTLTRNAVSTPCNPFGGY | < -0.25 |
| QFKARGTASQSDWSVR | < -0.25 |
| SAVVARFVTRHQLLTHCTD | < -0.25 |
| LLCEGRFLIVPIQGYTVDVG | < -0.25 |
| RTARYGRRG | < -0.25 |
| IPLQQ | < -0.25 |
| GGNQNPLELKGLGEP | < -0.25 |
| CVRHGC | < -0.25 |
| SGTICLTGDLRIVPAC | < -0.25 |
| KQEQHQKFGRELQLELTGLS | < -0.25 |
| KGGAVLSLNPT | < -0.25 |
| KDMDLRPNGR | < -0.25 |
| SEPLKDRYGDGRASGTEIHG | < -0.25 |

| Substance | growth estimate |
| --- | --- |
| KAQAEKHGRLEEN | < -0.25 |
| TTAGKLWP | < -0.25 |
| LMSEWSPCWRLSTTLHLDSE | < -0.25 |
| ILEPDVK | < -0.25 |
| GGASRGAIVKNIKAAVHPLH | < -0.25 |
| PPIVSVSTLNVGIVSWP | < -0.25 |
| HANIISLPV | < -0.25 |
| NPKGTPLNGG | < -0.25 |
| TSWKSSQARRNGRLVMKRAA | < -0.25 |
| DSLSTVGASSATS | < -0.25 |
| VYAARRKASVL | < -0.253 |
| SFGTQGQNPAEARSRIAQQP | < -0.25 |
| ILSW | < -0.25 |
| RTSGIQPTYTNHYKECVTGP | < -0.25 |
| MDVPEARLHACVYRSIVSTL | < -0.25 |
| STS | < -0.25 |
| GRTENKEMIRSCVITAAQFE | < -0.25 |
| TDSEAW | < -0.25 |
| PHSRL | < -0.25 |
| QTRIPVHLEMDPAFPIKGRL | < -0.25 |
| SGGFRS | < -0.25 |
| RRYGRH | < -0.25 |
| GNHRQVPTRVSKCAGLSGGL | < -0.25 |
| VCLARAESSGLTRLRKWCLC | -0.245 |
